Patent US20070031511A1, “Method of treatment” (priority 2003, published 2007)

Experiment: Quenching of peptide tryptophan fluorescence by ferric ions (stoichiometry, apparent Kd)
Assay type: binding
Conditions: 10 mM sodium acetate pH 4.0, 100 mM NaCl, 0.005% Tween 20; mean ± S.E.
Description: The tryptophan fluorescence of peptide solutions was measured in 3 mL quartz cuvettes thermostated at […], with a Spex Fluorolog-2 spectrofluorimeter (Spex Industries, Edison, N.J.), with the excitation and emission wavelengths set at 290 and 345 nm, respectively. The quenching of tryptophan fluorescence induced by the binding of metal ions was used to calculate the fraction of binding sites occupied, fa: fa=(yf−y)/(yf−yb) where y is the fluorescence signal at a given concentration of metal ions and yb and yf are the signals when the binding sites are fully occupied and unoccupied, respectively (Winzor et al, 1995). […]
The tryptophan fluorescence of progastrin6-80, glycine-extended gastrin17 and related peptides was measured in the presence of increasing concentrations of ferric ions in 10 mM sodium acetate, pH 4.0, 100 mM NaCl, 0.005% Tween 20. […]
The tryptophan fluorescence of amidated gastrin17 and related peptides was measured in the presence of increasing concentrations of ferric ions at pH 4.0 (8). […]

B1: Progastrin: recombinant human progastrin6-80 (protein, listed as Homo sapiens)
chain: SQQPDAPLGTGANRDLELPWLEQQGPASHHRRQLGPQGPPHLVADPSKKQGPWLEEEEEAYGWMDFGRRSAEDEN
- Stoichiometry of ferric ion binding: 2.48 ± 0.13
